PubChem BioAssay AID1259308 | NCATS – 2017
Aim: 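Genes whose loss raises luciferase production in HEK293 cells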 (primary screen). Cell system: human HEK293 embryonic kidney cells stably expressing firefly luciferase (HEK-CMV-Luc2-Hygro). Reagents: single siRNA against human genes, 0.8 pmol siRNA per well. Duration: 72 h. Measured: 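Reporter luminescence and viable-cell signal on separate replicate plates, given as percent of non-targeting control and median/MAD z-scores, plus per-cell luciferase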. Reading the numbers: total luciferase, z-score and total luciferase, % of control: higher = more reporter protein produced; luciferase per cell, z-score: higher = more reporter output per viable cell; viable cells, % of control: higher = more viable cells. Call rule: 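An siRNA counts as active if its total luciferase robust z-score exceeds 3; genes with two or more such siRNAs out of three were retested with fresh siRNAs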. Meaning of the calls: active = raised luciferase; inactive = no rise.
The whole screen tested about 59,000 reagents; below is a random part of them. About 1,510 of them (2.6%) count as active. 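Calls use total luciferase alone and ignore viability, so some active siRNAs may act by altering cell number.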 Entries without a mark were called inactive. The numbers tell different reagents against one gene apart. Reagent sequences are not shown.

| target gene | reagent no. | total luciferase, z-score | total luciferase, % of control | luciferase per cell, z-score | viable cells, % of control |
| --- | --- | --- | --- | --- | --- |
| SCN2A (sodium voltage-gated channel alpha subunit 2) | 1 | 0.126 | 84.4 | 0.0366 | 93.4 |
| SCN2A (sodium voltage-gated channel alpha subunit 2) | 2 | -0.572 | 70.5 | -0.411 | 87.8 |
| SCN2A (sodium voltage-gated channel alpha subunit 2) | 3 | 2.39 | 129 | 1.33 | 102 |
| CLUH (CLUH binding protein of NUMT mRNA) | 1 | 0.189 | 85.7 | -0.451 | 108 |
| CLUH (CLUH binding protein of NUMT mRNA) | 2 | -2 | 42 | -2.36 | 87.3 |
| CLUH (CLUH binding protein of NUMT mRNA) | 3 | 3.79 (active) | 157 | 2.29 | 96.1 |
| SQOR (sulfide quinone oxidoreductase) | 1 | 0.096 | 83.8 | 0.881 | 74.3 |
| SQOR (sulfide quinone oxidoreductase) | 2 | 0.0836 | 83.5 | -0.226 | 99.1 |
| SQOR (sulfide quinone oxidoreductase) | 3 | -0.748 | 67 | -1.46 | 110 |
| GOLGA2P10 (GOLGA2 pseudogene 10) | 1 | 3.14 (active) | 144 | 1.7 | 103 |
| GOLGA2P10 (GOLGA2 pseudogene 10) | 2 | 1.27 | 107 | 1.18 | 87.8 |
| GOLGA2P10 (GOLGA2 pseudogene 10) | 3 | 0.502 | 91.9 | 0.852 | 82 |
| SAMD13 (sterile alpha motif domain containing 13) | 1 | 0.11 | 84.1 | -0.0355 | 94.8 |
| SAMD13 (sterile alpha motif domain containing 13) | 2 | -1.3 | 55.9 | -1.3 | 88.1 |
| SAMD13 (sterile alpha motif domain containing 13) | 3 | -1.07 | 60.7 | -1.72 | 107 |
| ATAD5 (ATPase family AAA domain containing 5) | 1 | 1 | 102 | 0.857 | 90.7 |
| ATAD5 (ATPase family AAA domain containing 5) | 2 | 0.96 | 101 | 0.268 | 105 |
| ATAD5 (ATPase family AAA domain containing 5) | 3 | -1.64 | 49.2 | -0.171 | 57.5 |
| IQCC (IQ motif containing C) | 1 | 0.767 | 97.1 | -0.112 | 112 |
| IQCC (IQ motif containing C) | 2 | -0.251 | 76.9 | -0.719 | 104 |
| IQCC (IQ motif containing C) | 3 | -0.181 | 78.3 | -0.885 | 110 |

Active calls (from the list above):
| target gene | reagent no. | total luciferase, z-score | total luciferase, % of control | luciferase per cell, z-score | viable cells, % of control |
| --- | --- | --- | --- | --- | --- |
| CLUH (CLUH binding protein of NUMT mRNA) | 3 | 3.79 (active) | 157 | 2.29 | 96.1 |
| GOLGA2P10 (GOLGA2 pseudogene 10) | 1 | 3.14 (active) | 144 | 1.7 | 103 |

Continued:
| target gene | reagent no. | total luciferase, z-score | total luciferase, % of control | luciferase per cell, z-score | viable cells, % of control |
| --- | --- | --- | --- | --- | --- |
| GGT5 (gamma-glutamyltransferase 5) | 1 | -1.09 | 60.2 | -1.18 | 91.8 |
| GGT5 (gamma-glutamyltransferase 5) | 2 | 0.403 | 89.9 | 0.433 | 89.6 |
| GGT5 (gamma-glutamyltransferase 5) | 3 | 1.63 | 114 | 0.801 | 103 |
| PLPP5 (phospholipid phosphatase 5) | 1 | 0.813 | 98.1 | 0.0586 | 108 |
| PLPP5 (phospholipid phosphatase 5) | 2 | -0.549 | 71 | -0.491 | 90.2 |
| PLPP5 (phospholipid phosphatase 5) | 3 | 1.62 | 114 | 1.44 | 87.2 |
| SCARB2 (scavenger receptor class B member 2) | 1 | -0.244 | 77 | 1.23 | 62.2 |
| SCARB2 (scavenger receptor class B member 2) | 2 | -2.15 | 39.1 | -1.85 | 71.2 |
| SCARB2 (scavenger receptor class B member 2) | 3 | 0.457 | 91 | 0.691 | 84.7 |
| GC (GC vitamin D binding protein) | 1 | -1.71 | 47.8 | -2.34 | 99 |
| GC (GC vitamin D binding protein) | 2 | 0.68 | 95.4 | 0.683 | 89.1 |
| GC (GC vitamin D binding protein) | 3 | 0.688 | 95.6 | 0.199 | 101 |
| HYKK (hydroxylysine kinase) | 1 | -0.596 | 70 | -0.516 | 89.6 |
| HYKK (hydroxylysine kinase) | 2 | -1.5 | 52 | -1.53 | 86.8 |
| HYKK (hydroxylysine kinase) | 3 | -0.308 | 75.8 | -0.977 | 110 |
| RPLP1P3 (ribosomal protein lateral stalk subunit P1 pseudogene 3) | 1 | 1.22 | 106 | 1.18 | 87.1 |
| RPLP1P3 (ribosomal protein lateral stalk subunit P1 pseudogene 3) | 2 | -0.444 | 73.1 | -0.0556 | 82.8 |
| RPLP1P3 (ribosomal protein lateral stalk subunit P1 pseudogene 3) | 3 | -1.09 | 60.2 | -0.687 | 80.6 |
